# This is one part of the list.
# Columns and labels:
# Experiment in all cases: glycan array binding signal (z-score within array); higher = stronger binding
# Details in all cases: glycan notation: IUPAC condensed, linker removed
# [1] = target: Neu5Ac(a2-6)Gal(b1-4)GlcNAc(b1-6)GalNAc
# Summary of the method: (§1)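 The Consortium for Functional Glycomics database supplied 3228 glycan arrays, of which those lacking an available protein sequence were dropped. The binding signal, a within-array Z-score, was averaged across arrays of the same protein sequence and across linkers. Negative scores can be read as non-binding.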
# [2] = target: Neu5Ac(a2-6)Gal(b1-4)GlcNAc(b1-6)[Gal(b1-3)GlcNAc(b1-3)]Gal(b1-4)Glc
# Summary of the method: as §1
# [3] = target: Neu5Ac(a2-6)Gal(b1-4)GlcNAc(b1-6)[Gal(b1-3)]GalNAc
# Summary of the method: as §1
# [4] = target: Neu5Ac(a2-6)Gal(b1-4)GlcNAc6S
# Summary of the method: as §1
# Neu5Ac(a2-6)GalNAc = target: Neu5Ac(a2-6)GalNAc
# Summary of the method: as §1
# [5] = target: Neu5Ac(a2-6)GalNAc(b1-4)GlcNAc
# Summary of the method: as §1
# [6] = target: Neu5Ac(a2-6)GalNAc(b1-4)GlcNAc6S
# Summary of the method: as §1
# [7] = target: Neu5Ac(a2-6)GlcNAc(b1-4)GlcNAc
# Summary of the method: as §1
# [8] = target: Neu5Ac(a2-6)GlcNAc(b1-4)GlcNAc(b1-4)GlcNAc
# Summary of the method: as §1
# Neu5Ac(a2-8)Neu5Ac = target: Neu5Ac(a2-8)Neu5Ac
# Summary of the method: as §1
# [9] = target: Neu5Ac(a2-8)Neu5Ac(a2-3)Gal(b1-3)GalNAc(b1-4)[Neu5Ac(a2-3)]Gal(b1-4)Glc
# Summary of the method: as §1
# [10] = target: Neu5Ac(a2-8)Neu5Ac(a2-3)Gal(b1-3)GalNAc(b1-4)[Neu5Ac(a2-8)Neu5Ac(a2-3)]Gal(b1-4)Glc
# Summary of the method: as §1
# [11] = target: Neu5Ac(a2-8)Neu5Ac(a2-3)Gal(b1-4)Glc
# Summary of the method: as §1
# [12] = target: Neu5Ac(a2-8)Neu5Ac(a2-3)Gal(b1-4)GlcNAc
# Summary of the method: as §1
# [13] = target: Neu5Ac(a2-8)Neu5Ac(a2-3)[Gal(b1-3)GalNAc(b1-4)]Gal(b1-4)Glc
# Summary of the method: as §1
# [14] = target: Neu5Ac(a2-8)Neu5Ac(a2-3)[GalNAc(b1-4)]Gal(b1-4)Glc
# Summary of the method: as §1
# [15] = target: Neu5Ac(a2-8)Neu5Ac(a2-8)Neu5Ac
# Summary of the method: as §1
# [16] = target: Neu5Ac(a2-8)Neu5Ac(a2-8)Neu5Ac(a2-3)Gal(b1-4)Glc
# Summary of the method: as §1
# [17] = target: Neu5Ac(a2-8)Neu5Ac(a2-8)Neu5Ac(a2-3)[Gal(b1-3)GalNAc(b1-4)]Gal(b1-4)Glc
# Summary of the method: as §1
# [18] = target: Neu5Ac(a2-8)Neu5Ac(a2-8)Neu5Ac(a2-3)[GalNAc(b1-4)]Gal(b1-4)Glc
# Summary of the method: as §1
# [19] = target: Neu5Ac(a2-8)Neu5Ac(a2-8)Neu5Ac(a2-8)Neu5Ac(a2-3)[GalNAc(b1-4)]Gal(b1-4)Glc
# Summary of the method: as §1
# [20] = target: Neu5Ac(a2-8)Neu5Gc(a2-3)Gal(b1-4)GlcNAc
# Summary of the method: as §1
# [21] = target: Neu5Ac(b2-6)Gal(b1-4)GlcNAc
# Summary of the method: as §1
# Neu5Ac(b2-6)GalNAc = target: Neu5Ac(b2-6)GalNAc
# Summary of the method: as §1
# [22] = target: Neu5Ac9Ac(a2-3)Gal(b1-3)GlcNAc
# Summary of the method: as §1
# [23] = target: Neu5Ac9Ac(a2-3)Gal(b1-4)GlcNAc
# Summary of the method: as §1
# [24] = target: Neu5Ac9Ac(a2-6)Gal(b1-4)GlcNAc
# Summary of the method: as §1
# [25] = target: Neu5Gc(a2-3)Gal(b1-3)GlcNAc
# Summary of the method: as §1
# [26] = target: Neu5Gc(a2-3)Gal(b1-3)[Fuc(a1-4)]GlcNAc
# Summary of the method: as §1
# Neu5Gc(a2-3)Gal(b1-4)Glc = target: Neu5Gc(a2-3)Gal(b1-4)Glc
# Summary of the method: as §1
# [27] = target: Neu5Gc(a2-3)Gal(b1-4)GlcNAc
# Summary of the method: as §1
# [28] = target: Neu5Gc(a2-3)Gal(b1-4)GlcNAc(b1-3)Gal(b1-4)GlcNAc(b1-2)Man(a1-3)[Neu5Gc(a2-3)Gal(b1-4)GlcNAc(b1-3)Gal(b1-4)GlcNAc(b1-2)Man(a1-6)]Man(b1-4)GlcNAc(b1-4)GlcNAc
# Summary of the method: as §1
# [29] = target: Neu5Gc(a2-3)Gal(b1-4)[Fuc(a1-3)]GlcNAc
# Summary of the method: as §1
# [30] = target: Neu5Gc(a2-6)Gal(b1-4)GlcNAc
# Summary of the method: as §1
# Neu5Gc(a2-6)GalNAc = target: Neu5Gc(a2-6)GalNAc
# Summary of the method: as §1
# [31] = target: Neu5Gc(a2-8)Neu5Ac(a2-3)Gal(b1-4)GlcNAc
# Summary of the method: as §1
# [32] = target: Neu5Gc(a2-8)Neu5Gc(a2-3)Gal(b1-4)GlcNAc
# Summary of the method: as §1
# [33] = target: Neu5Gc(a2-8)Neu5Gc(a2-3)Gal(b1-4)GlcNAc(b1-3)Gal(b1-4)GlcNAc
# Summary of the method: as §1
binder,measurement,setting,value
PX14343I-pdi-501-30-501 (Parabacteroides distasonis) (protein) SDQYSTETFWKTKEHASAGIMGCYNALKLWRSLHTMEFDMLTANAMPYNEANGTQAIGKGEHLSTTALIGSLWKNCYVGIGRTNTFIANVGGVDMDESEKAKMVGEAKFLRAFYYLSLVDKFGGVPLIIDAPNADEQAELPRNSKEEVVNQIVKDLEEAAAVLPDTYASSDLGRATKGAALALKARTLLYNSRWAEAAQAAKQVMESGVYQLFNDYRHFFSEDNKYNCEVIFDIEAKLPEYPTDYDQNIWRLNRPAPLKELVDTYLCVDGKTIEESPLYDPTRPYENRDPRLLKSIVCIGYPYLGKTITKEDVATTGFGVKKYTSYEDDVTIPLVERSAFNFILIRYAEVLLTYAEAQNEASGPDQSVYDAINQLRRRPDINMPEVPKGLTKDQMREVIRRERRIELTFEGLYYSDILRWKTAEKENNGMMHNYEGIEVVKRSFNPKRDYLWPIPYNQTVLNPNLEQNPNWD,glycan array binding signal (z-score),[1],-0.818
same,glycan array binding signal (z-score),[2],-0.851
same,glycan array binding signal (z-score),[3],0.079
same,glycan array binding signal (z-score),[4],-0.035
same,glycan array binding signal (z-score),Neu5Ac(a2-6)GalNAc,-0.173
same,glycan array binding signal (z-score),[5],-0.219
same,glycan array binding signal (z-score),[6],-0.333
same,glycan array binding signal (z-score),[7],-0.785
same,glycan array binding signal (z-score),[8],-0.159
same,glycan array binding signal (z-score),Neu5Ac(a2-8)Neu5Ac,-0.092
same,glycan array binding signal (z-score),[9],-0.761
same,glycan array binding signal (z-score),[10],-0.169
same,glycan array binding signal (z-score),[11],0.571
same,glycan array binding signal (z-score),[12],-0.464
same,glycan array binding signal (z-score),[13],-0.07
same,glycan array binding signal (z-score),[14],0.193
same,glycan array binding signal (z-score),[15],-0.602
same,glycan array binding signal (z-score),[16],0.321
same,glycan array binding signal (z-score),[17],0.02
same,glycan array binding signal (z-score),[18],-0.479
same,glycan array binding signal (z-score),[19],-0.145
same,glycan array binding signal (z-score),[20],18.3
same,glycan array binding signal (z-score),[21],-0.616
same,glycan array binding signal (z-score),Neu5Ac(b2-6)GalNAc,-0.163
same,glycan array binding signal (z-score),[22],0.381
same,glycan array binding signal (z-score),[23],-0.014
same,glycan array binding signal (z-score),[24],-1.17
same,glycan array binding signal (z-score),[25],-0.548
same,glycan array binding signal (z-score),[26],-0.573
same,glycan array binding signal (z-score),Neu5Gc(a2-3)Gal(b1-4)Glc,0.326
same,glycan array binding signal (z-score),[27],-0.457
same,glycan array binding signal (z-score),[28],0.54
same,glycan array binding signal (z-score),[29],-0.212
same,glycan array binding signal (z-score),[30],-0.608
same,glycan array binding signal (z-score),Neu5Gc(a2-6)GalNAc,-0.173
same,glycan array binding signal (z-score),[31],0.394
same,glycan array binding signal (z-score),[32],-0.149
same,glycan array binding signal (z-score),[33],0.077

# Part of the list above, with bars between the fields.
binder | measurement | setting | value
PX14343I-pdi-501-30-501 (Parabacteroides distasonis) (protein) SDQYSTETFWKTKEHASAGIMGCYNALKLWRSLHTMEFDMLTANAMPYNEANGTQAIGKGEHLSTTALIGSLWKNCYVGIGRTNTFIANVGGVDMDESEKAKMVGEAKFLRAFYYLSLVDKFGGVPLIIDAPNADEQAELPRNSKEEVVNQIVKDLEEAAAVLPDTYASSDLGRATKGAALALKARTLLYNSRWAEAAQAAKQVMESGVYQLFNDYRHFFSEDNKYNCEVIFDIEAKLPEYPTDYDQNIWRLNRPAPLKELVDTYLCVDGKTIEESPLYDPTRPYENRDPRLLKSIVCIGYPYLGKTITKEDVATTGFGVKKYTSYEDDVTIPLVERSAFNFILIRYAEVLLTYAEAQNEASGPDQSVYDAINQLRRRPDINMPEVPKGLTKDQMREVIRRERRIELTFEGLYYSDILRWKTAEKENNGMMHNYEGIEVVKRSFNPKRDYLWPIPYNQTVLNPNLEQNPNWD | glycan array binding signal (z-score) | [17] | 0.02
same | glycan array binding signal (z-score) | [18] | -0.479
same | glycan array binding signal (z-score) | [19] | -0.145
same | glycan array binding signal (z-score) | [20] | 18.3
same | glycan array binding signal (z-score) | [21] | -0.616
same | glycan array binding signal (z-score) | Neu5Ac(b2-6)GalNAc | -0.163
same | glycan array binding signal (z-score) | [22] | 0.381
same | glycan array binding signal (z-score) | [23] | -0.014
same | glycan array binding signal (z-score) | [24] | -1.17
